Some of the results follow. Shown are side measurements of this screen, not its main read-out; they come without a call. Compounds called inactive in the main read-out are mostly missing here. Potencies come from curve fits of mixed quality, noted in brackets.

The test is described as follows: Cell signaling CRE-BLA (Fsk stim). The following applies: CHO CRE-bla reporter (cAMP response element driving beta-lactamase), forskolin EC10, beta-lactamase ratio; measured here: 460 nm blue channel. A digest of the protocol:
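Modulation of forskolin-driven signalling is measured in CHO cells carrying a CRE-controlled beta-lactamase reporter. Cells are stimulated with EC10 NKH 477 in the presence of titrated compound for 3 h at 37 °C, then loaded with CCF4 for 2 h at room temperature.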
`COc1ccc(-c2csc(N3CCN(C(=O)c4ccco4)CC3)n2)cc1`: the AC50 was 25.1 µM [falling, single point].

With `O=C(Nc1cc(C(=O)N2CCOCC2)cc(C(=O)N2CCOCC2)c1)c1cc(F)c(F)cc1Cl`, the AC50 is 0.00501 µM [falling, full curve, poor fit].

With `O=C(Cc1cccs1)Nc1ccccn1`, the AC50 was 20 µM [rising, single point].

Take `O=C(Cn1cnc2c(nnn2-c2ccccc2)c1=O)NCCc1ccccc1`: the AC50 was 12.6 µM [rising, partial curve].

As for `CN1CCN(c2ncc3nc(CCc4ccccc4)c(=O)n(CCc4ccccc4)c3n2)CC1`, the AC50 is 15.8 µM [rising, partial curve].

In the case of `O=C(CSc1nnc(-c2ccco2)n1-c1ccccc1)N1CCOCC1`, the AC50 was 0.158 µM [rising, full curve].

As for `c1cncc(CNc2nc(-c3cccnc3)nc3ccccc23)c1`, the AC50 is 3.98 µM [rising, full curve].

`N#Cc1c(NC(=O)c2ccc(Br)o2)n(-c2ccccc2)c2nc3ccccc3nc12`: the half-maximal activity concentration (AC50) was 12.6 µM [rising, partial curve].

For the compound `CC(Oc1ccccc1)C(=O)OCC(=O)NC(=O)NCc1ccco1` (centres undefined), the concentration at half-maximal activity (AC50) was 7.94 µM [falling, partial curve].

As for `COCCNc1nc(-c2ccccc2Cl)nc2ccccc12`, the AC50 is 6.31 µM [rising, partial curve].

For `Cc1ccsc1-c1nc(CSCC(=O)N2CCN(c3ccccc3)CC2)c(C)o1`, the AC50 is 25.1 µM [falling, single point].

As for `O=C(CCN1CCCCC1)c1ccc2c(c1)OCCO2`, the AC50 was 6.31 µM [falling, partial curve].

`c1ccc(-n2c(SCc3nc(-c4cccs4)no3)nnc2-c2ccco2)cc1`: the AC50 was 10 µM [rising, partial curve].

For the compound `COc1ccc(C(c2sc3nc(C)nn3c2O)N2CCC(C(N)=O)CC2)cc1OC` (centres undefined), the AC50 was 10 µM [rising, partial curve].

For `CCC(=O)Nc1ccc(NC(=O)c2c(C)nc3ccccn23)cc1`, the AC50 is 20 µM [rising, single point].

Regarding `CCN(CC)S(=O)(=O)c1ccc(OCC(=O)NCc2ccccc2)cc1`, the concentration at half-maximal activity (AC50) was 5.01 µM [falling, single point].

In the case of `COc1cccc2cc(NC(=O)C3CCCCC3)c(=O)oc12`, the AC50 was 0.794 µM [rising, full curve, poor fit].

Regarding `C=Cn1nc(C)c2ccccc2c1=O`, the AC50 was 12.6 µM [rising, single point].

For `CC(C)=C[C@H]1[C@@H](C(=O)Oc2ccccc2C(C)C)C1(C)C`, the AC50 was 5.01 µM [rising, single point].

For `C=CCSc1nc(N)c(C#N)c(-c2ccc(C)cc2)c1C#N`, the concentration at half-maximal activity (AC50) is 3.16 µM [rising, partial curve].

As to `CC(C)COC(=O)c1cc(=O)[nH]c2ccccc12`, the AC50 was 15.8 µM [rising, partial curve].

Turning to `COc1ccc(S(=O)(=O)NC(CC(=O)NCC2CCCO2)c2ccco2)cc1` (centres undefined), the AC50 was 0.00794 µM [falling, full curve, poor fit].

In the case of `COc1ccc(NC(=O)Cn2nc3n(c2=S)CCC3)cc1`, the concentration at half-maximal activity (AC50) was 0.0398 µM [rising, full curve, poor fit].

For `CC(C)Sc1nc2c(cnn2-c2ccc(F)cc2)c(=O)[nH]1`, the AC50 was 2.51 µM [rising, full curve].

For `Cn1c(-c2cccc(Br)c2)cnc1NCc1cccnc1`, the half-maximal activity concentration (AC50) is 5.01 µM [rising, single point].

Regarding `COC(=O)Cc1[nH]nc2c1C(C1C=CCCC1)C(C#N)=C(N)O2` (centres undefined), the AC50 is 0.1 µM [falling, full curve].

For the compound `CCOC(=O)c1ccc(Nc2ncnc3c2cnn3C)cc1`, the AC50 was 10 µM [rising, single point].

For the compound `N[C@H](C(=O)O)c1nn[nH]n1`, the AC50 is 31.6 µM [falling, single point].

As to `CC(=O)c1ccccc1Oc1nc(CN2CCOCC2)nc2scc(-c3cccs3)c12`, the AC50 is 10 µM [rising, single point].

Consider `COCCCn1cnc2c(c1=O)c1nc3ccccc3nc1n2-c1ccccc1`, for which the AC50 is 1 µM [rising, full curve].

In the case of `c1coc(CNc2c3c(nc4ncnn24)CCC3)c1`, the AC50 was 5.01 µM [falling, single point].

On to `COc1cccc(-c2cc(C(=O)Nc3ccccc3SC)no2)c1`, for which the AC50 was 3.16 µM [falling, partial curve, poor fit].

Regarding `CC(C)Oc1ccccc1-c1nc(SCC(=O)O)n[nH]1`, the AC50 was 10 µM [falling, partial curve, poor fit].

Take `CCn1c2ccccc2c2nnc(SCC(=O)NCc3cccs3)nc21`: the AC50 was 10 µM [rising, partial curve].

With `CCOc1ccc(NC(=O)c2nnn(CC(=O)Nc3ccccc3OCC)c2N)cc1`, the AC50 was 2 µM [rising, single point].

Consider `Cc1cc(=O)[nH]c(SCc2nc3ccccc3n2Cc2ccccc2)n1`, for which the AC50 is 15.8 µM [rising, single point].

`COc1ccc(C(=O)N2CCCC(c3nc(-c4cccs4)no3)C2)cc1OC` (centres undefined): the AC50 was 20 µM [rising, single point].

Turning to `Clc1ccc2c(c1)c1ccccc1n2CN1CCOCC1`, the AC50 was 10 µM [rising, single point].

For `Cc1nc(SCC(=O)N2CCOCC2)c2ccsc2n1`, the AC50 is 5.01 µM [falling, partial curve].

On to `O=C(CSc1nnc(-c2cccnc2)n1Cc1ccco1)c1ccc(Cl)c(Cl)c1`, for which the AC50 is 12.6 µM [rising, single point].

In the case of `CC(C)C[C@@H](CC(=O)N[C@@H](CCC(=O)O)CC(=O)O)NC(=O)[C@@H]1CNCC[C@H]1NC(=O)C[C@@H](NC(=O)C[C@H](CO)NC(=O)[C@@H]1CNCC[C@H]1N)C(C)C`, the AC50 is 10 µM [falling, full curve, poor fit].

Turning to `Cc1cccc(N2CCN(S(=O)(=O)c3ccc4c(c3)CCN4C(=O)CCC(=O)O)CC2)c1C`, the AC50 is 0.316 µM [falling, full curve].

On to `N[C@@H](CO)C(=O)O`, for which the AC50 was 31.6 µM [falling, single point].

In the case of `O=C(NC1CC1)c1ccc2c(c1)ncn2C1CCCC1`, the AC50 is 25.1 µM [rising, single point].

As for `O=C(Nc1ccccc1C(=O)OCn1nnc2ccccc2c1=O)c1ccco1`, the AC50 was 25.1 µM [rising, single point].

For `Cc1ccc(S(=O)(=O)n2nc(-c3ccco3)nc2SCc2ccccc2)cc1`, the AC50 is 1.26 µM [falling, full curve, poor fit].

For `CCOC(=O)Nc1ccc2c(c1)N(C(=O)OC)c1ccccc1CC2`, the AC50 is 25.1 µM [rising, single point].

In the case of `Cc1nc(N)c(C#N)c(-c2ccccc2)c1C`, the AC50 was 3.16 µM [rising, partial curve].

On to `CN1C(=O)CC[C@@H]1c1cccnc1`, for which the AC50 was 5.01 µM [rising, single point].

For the compound `Cc1ccc(S(=O)(=O)N(C)Cc2ccc(-c3nnc4n3CCC4)cc2)cc1`, the AC50 is 5.01 µM [falling, single point].

On to `COc1cc(C(O)P(=O)(OC2CCCCC2)c2ccc(N(C)C)cc2)cc(OC)c1OC` (centres undefined), for which the AC50 was 3.16 µM [falling, single point].

With `C1COC(NC(C2CC2)C2CC2)=N1`, the AC50 was 25.1 µM [falling, single point].

Take `O=c1c(-c2cc(F)cc(F)c2)nc2cnc(N3CCNCC3)nc2n1Cc1cccs1`: the AC50 was 2 µM [rising, full curve].

Take `Cc1cc(C)n(-c2nc3c(c(=O)[nH]c(=O)n3C)n2CCc2ccccc2)n1`: the AC50 was 12.6 µM [rising, single point].

Take `CCCC(=O)Nc1nn(C)c2nc3cc(C)ccc3cc12`: the AC50 is 3.98 µM [rising, partial curve].

Consider `CC1CCCCC1NC(=O)c1ccc(N2CCCC2=O)cc1` (centres undefined), for which the AC50 is 1.26 µM [rising, single point].

For the compound `N#CC1=C(N)Oc2cc3c(cc2C1c1ccc(Cl)cc1)OCO3` (centres undefined), the AC50 is 15.8 µM [rising, single point].

As to `CCn1nc(C)c(/C=C2\CCCC3=C2OC(N)=C(C#N)C3c2c(C)nn(CC)c2C)c1C` (centres undefined), the AC50 is 25.1 µM [rising, single point].

Take `COCCn1c(=O)c(-c2ccc(Cl)cc2)nc2cncnc21`: the concentration at half-maximal activity (AC50) was 12.6 µM [rising, partial curve].

For the compound `Cc1c(-c2nn(C)c(=O)c3ccccc23)oc2ccc(F)cc2c1=O`, the AC50 was 0.0501 µM [rising, full curve, poor fit].

Turning to `Cc1cc(NC(=O)CSc2nc(-c3ccccc3)cs2)no1`, the AC50 is 12.6 µM [falling, partial curve].

Consider `c1ccc2nc(N3CCCC3)c(N3CCCC3)nc2c1`, for which the AC50 was 12.6 µM [rising, single point].

Regarding `Cc1[nH]nc2c1C(c1ccccc1)C1=C(CC(C)(C)CC1=O)N2` (centres undefined), the AC50 was 0.00316 µM [falling, full curve, poor fit].

For `Oc1ccc2cc(SSc3ccc4cc(O)ccc4c3)ccc2c1`, the concentration at half-maximal activity (AC50) was 7.94 µM [falling, partial curve].

As to `COc1ccc(OCCCN2CCCC(C)C2)cc1` (centres undefined), the AC50 was 15.8 µM [rising, single point].

Turning to `Cc1ccc2[nH]c3c(c2c1)CN(C(=O)CN1CCN(c2cccc(C)c2C)CC1)CC3`, the AC50 was 3.16 µM [falling, single point].

With `COC(=O)c1cc(Br)c(=O)n(CCN(C(C)C)C(C)C)c1`, the AC50 is 15.8 µM [falling, partial curve].

As to `CN(C)c1ccc(-c2cncnc2Nc2ccc(F)cc2)cc1`, the AC50 was 15.8 µM [falling, partial curve].

As to `O=C(Nc1nc(-c2ccc(S(=O)(=O)N3CCCC3)cc2)cs1)c1ccco1`, the AC50 is 12.6 µM [rising, partial curve].

As a reminder, the AC50 is the midpoint of the concentration-response curve, whichever way the signal moves.
